From article PMC11489176 come the findings set out here.

No constants are given. Whether binding was seen depends on the method and setting. Some results given as binding are weak or reduced against the parent protein; the word gives no strength.

In this assay the target is PRDX1 (Peroxiredoxin 1), endogenous in HCT116 cells (human (endogenous in HCT116)) (UniProt Q06830). The assay can be described thus: non-reducing PAGE and Western blot; HCT116 cells treated with different doses of CoA for 2 h; lysed in non-denaturing lysis buffer, boiled in non-reducing loading buffer, blotted for PRDX1 dimer and oligomer (Fig. 5I). On the technique in general: A western blot detects proteins with antibodies after separation by electrophoresis.

B1: PRDX1 (Peroxiredoxin 1), endogenous in HCT116 cells (protein, UniProt Q06830 1-199)
chain: MSSGNAKIGHPAPNFKATAVMPDGQFKDISLSDYKGKYVVFFFYPLDFTFVCPTEIIAFSDRAEEFKKLNCQVIGASVDSHFCHLAWVNTPKKQGGLGPMNIPLVSDPKRTIAQDYGVLKADEGISFRGLFIIDDKGILRQITVNDLPVGRSVDETLRLVQAFQFTDKHGEVCPAGWKPGSDTIKPDVQKSKEYFSKQK
On to B1, for which the binding result is listed as “binds”.
